# Percent effect of library compounds

Measurements from “University of Dundee, Small-Polar-MMV Screening Library” (2021), ChEMBL document CHEMBL3988442.

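Whole-cell growth test on Mycobacterium tuberculosis, read after 4 days in a medium based on cholesterol and the lipid DPPC; the read-out is not stated. Concentration: 50 µM. The record gives no direction; compounds that gave an IC50 in retests scored well above the rest, so higher reads as more growth inhibition. About 69,000 compounds were tested under these conditions; 0.54% (about 370) showed 50% or more at least once.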

Results are given as percent effect.
The record does not define 0% and 100%; most values in the screen are far below 50% and negative numbers occur (in some assays of this library far below -100).
Compounds were drawn at random from those tested, without regard to their results.
Two or more numbers in one place are separate tests of the same structure; such repeats can differ widely.

{"smiles": "CC1CCC2(CC1)Nc1ccccc1CO2", "stereo": "stereo not given", "percent effect": -2.945}
{"smiles": "CC(C)CCNC(=O)c1c(-n2cnnn2)sc2c1CCCC2", "percent effect": -27.63}
{"smiles": "Cc1cccc(N2Cc3nc(=O)n(Cc4cccc(F)c4)n3C2=O)c1", "percent effect": -13}
{"smiles": "CCN(CCOC)C(=O)c1ccc2c(c1)nc(N1CC[C@H](O)C1)n2C", "percent effect": -9.843}
{"smiles": "CCc1ccc(C(COC)NC(=O)c2ccc(NC(C)=O)cc2)o1", "stereo": "stereo not given", "percent effect": -14.56}
{"smiles": "Cc1cc(CN2CCN(c3ccc4nncn4n3)C(C)C2)on1", "stereo": "stereo not given", "percent effect": -15.44}
{"smiles": "Cc1cc(C)c(CNC(=O)N(C)Cc2ccc(F)cc2)c(=O)[nH]1", "percent effect": -12.93}
{"smiles": "COc1ccc2c(c1)C1(CCNCC1)CC2NC1CC1.Cl.Cl", "stereo": "stereo not given", "percent effect": -0.7907}
{"smiles": "CC(C)c1nc2c(n1C)CCN(CCCc1nc3ccccc3o1)C2", "percent effect": -30.97}
{"smiles": "CCn1nc(C)cc1C(=O)OCCNC(=O)c1ccccc1", "percent effect": 13.66}
{"smiles": "CS(=O)(=O)NC1CCc2c(ccc(=O)n2CC2CC2)C1", "stereo": "stereo not given", "percent effect": -3.977}
{"smiles": "COCCOCC(=O)Nc1ccc(F)cc1C", "percent effect": -26.75}
{"smiles": "CC(C)Cc1cc(C(=O)NCc2nnc[nH]2)[nH]n1", "percent effect": -0.1938}
{"smiles": "CN(C)CC(=O)N1CCCC1c1cncc(Oc2ccc(F)cc2)n1", "stereo": "stereo not given", "percent effect": -4.7}
{"smiles": "O=C(Nc1ccc(CCN2CCC(O)CC2)cc1)Nc1cccnc1", "percent effect": 14.09}
{"smiles": "CC(=O)Nc1ccc(Cl)c(C(=O)N(C)C(C)c2ccncn2)c1", "stereo": "stereo not given", "percent effect": -13.32}
{"smiles": "[H][C@@]12C[C@@H](OC)C[C@]1([H])CN(C(=O)Cc1ccc(C)s1)C2", "percent effect": "33.25 & 43.65"}
{"smiles": "O=C(c1csc(-c2cccs2)n1)N1CCN2CCCCC2C1", "stereo": "stereo not given", "percent effect": -8.852}
{"smiles": "Cc1cccc(-n2nnnc2C(C)(C)Nc2ccccc2C)c1", "percent effect": 17.72}
{"smiles": "O=C(O)C(F)(F)F.[H][C@@]12CCN(C3CCOCC3)C[C@@]1([H])O[C@@H](C(=O)N1CCCC1)C2", "percent effect": 26.68}
{"smiles": "CCC(O)CN1CCN(C(=O)c2sccc2OC)CC1", "stereo": "stereo not given", "percent effect": -2.193}
{"smiles": "COc1cccc(CN2CC[C@H](c3nnc(-c4ccco4)o3)C2)c1", "percent effect": 2.868}
{"smiles": "CCn1cc(CN2CCCC(COc3ccccc3F)C2)cn1", "stereo": "stereo not given", "percent effect": 16.89}
{"smiles": "Cc1ccc(CN2Cc3nnn(C)c3C(COCC3CC3)C2)o1.O=C(O)C(F)(F)F", "stereo": "stereo not given", "percent effect": -9.688}
{"smiles": "CCc1nccn1C1CCCN(C(=O)c2ccc(C(=O)NC)nc2)C1", "stereo": "stereo not given", "percent effect": -1.427}
{"smiles": "CCn1cc(CNc2ccc(Br)c(OC)c2)cn1", "percent effect": -2.735}
{"smiles": "CC(C)(C)N1CC(C(=O)N2CCN(CCn3cncn3)CC2)CC1=O", "stereo": "stereo not given", "percent effect": -9.414}
{"smiles": "O=C(O)C(F)(F)F.O=C(O)C(F)(F)F.O=C(O)C(F)(F)F.[H][C@@]12CN(Cc3ccc(F)cc3)C[C@]1([H])OCCN2CCN1CCCC1", "percent effect": -2.111}
{"smiles": "Cc1nn(C)c2nc(N(Cc3ccccc3)CC3CCCO3)sc12", "stereo": "stereo not given", "percent effect": -1.703}
{"smiles": "O=C(NCCOc1ccc(Cl)cc1)N1CCS(=O)(=O)CC1", "percent effect": -0.686}
{"smiles": "COc1cc(CN)c(OC)c2c1OCO2.Cl", "percent effect": "8.87 & -11.49"}
{"smiles": "O=C(O)C(F)(F)F.O=C(O)C(F)(F)F.[H][C@@]12C[C@@H](OCc3ccccc3)CN1CCN(Cc1nccn1C)C2", "percent effect": -11.62}
{"smiles": "CCSc1cncc(N2CCC(C(=O)Nc3ccccn3)CC2)n1", "percent effect": 21.44}
{"smiles": "CCOCc1ccccc1NC(=O)NCC(C)(O)c1cccs1", "stereo": "stereo not given", "percent effect": -21.62}
{"smiles": "CN(Cc1cnn(C)c1)C(=O)C1COCC(=O)N1Cc1ccccc1", "stereo": "stereo not given", "percent effect": -1.582}
{"smiles": "Cc1ccc(-n2cc(C(=O)N3CCCC(n4cccn4)C3)nn2)cc1", "stereo": "stereo not given", "percent effect": 2.392}
{"smiles": "CCC(=O)Nc1cccc(C(=O)NCCC2=CSC3=NCCCN23)c1", "percent effect": -1.246}
{"smiles": "O=C(NCc1ccccn1)c1nnn(-c2ccc(Br)cc2)n1", "percent effect": 45.17}
{"smiles": "Cc1cnn(CCNCCCOc2ccc(C#N)cc2)c1", "percent effect": 10.88}
{"smiles": "COCC1CN(Cc2c(C)noc2C)Cc2cn(C)nc21", "stereo": "stereo not given", "percent effect": -25.08}
{"smiles": "CNc1cc(C2CCN2c2ncccn2)nc(C)n1", "stereo": "stereo not given", "percent effect": -3.004}
{"smiles": "CCC(CO)N(Cc1ccc(C(=O)O)cc1)Cc1ccsc1", "stereo": "stereo not given", "percent effect": "-6.019 & 18.77"}
{"smiles": "CC(C)c1nc(CN2CCN(C(=O)CC3CCCCC3)CC2)no1", "percent effect": -4.617}
{"smiles": "O=C(c1ccc[nH]1)N1Cc2nccn2CC(COc2cccnc2)C1", "stereo": "stereo not given", "percent effect": -22.27}
{"smiles": "CCN(C(=O)CCOC)C(c1ccc(Cl)cc1)c1ccccn1", "stereo": "stereo not given", "percent effect": -5.115}
{"smiles": "CC(C)OCCC(=O)NCC(O)c1c(F)cccc1F", "stereo": "stereo not given", "percent effect": -1.985}
{"smiles": "O=C(O)C(F)(F)F.[H][C@@]12C[C@@H](c3nc(C)no3)O[C@]1([H])CN(Cc1cc(C)on1)C2", "percent effect": -17.52}
{"smiles": "[H][C@@]12CCCCCN(C)[C@@]1([H])[C@H](c1ccccc1)CN2C(=O)c1ccccn1", "percent effect": -19.07}
{"smiles": "NC(=O)Cn1ccnc1C1CCCN(Cc2nc3ccccc3s2)C1", "stereo": "stereo not given", "percent effect": -8.024}

Once more, the final 5:

{"smiles": "CCN(C(=O)CCOC)C(c1ccc(Cl)cc1)c1ccccn1", "stereo": "stereo not given", "percent effect": -5.115}
{"smiles": "CC(C)OCCC(=O)NCC(O)c1c(F)cccc1F", "stereo": "stereo not given", "percent effect": -1.985}
{"smiles": "O=C(O)C(F)(F)F.[H][C@@]12C[C@@H](c3nc(C)no3)O[C@]1([H])CN(Cc1cc(C)on1)C2", "percent effect": -17.52}
{"smiles": "[H][C@@]12CCCCCN(C)[C@@]1([H])[C@H](c1ccccc1)CN2C(=O)c1ccccn1", "percent effect": -19.07}
{"smiles": "NC(=O)Cn1ccnc1C1CCCN(Cc2nc3ccccc3s2)C1", "stereo": "stereo not given", "percent effect": -8.024}